According to patent US20260166115A1, “POLYUNSATURATED FATTY ACID-BOUND ALPHA FETOPROTEIN PROMOTES IMMUNE SUPPRESSION BY ALTERING HUMAN DENDRITIC CELL METABOLISM” (The Regents of the University of California, priority 2022, published 2026):

B1: tAFP: tumor-derived alpha fetoprotein, SEQ ID NO: 1; commercially available (Bio-Rad) (protein, listed as Homo sapiens)
chain: MKWVESIFLIFLLNFTESRTLHRNEYGIASILDSYQCTAEISLADLATIFFAQFVQEATYKEVSKMVKDALTAIEKPTGDEQSSGCLENQLPAFLEELCHEKEILEKYGHSDCCSQSEEGRHNCFLAHKKPTPASIPLFQVPEPVTSCEAYEEDRETFMNKFIYEIARRHPFLYAPTILLWAARYDKIIPSCCKAENAVECFQTKAATVTKELRESSLLNQHACAVMKNFGTRTFQAITVTKLSQKFTKVNFTEIQKLVLDVAHVHEHCCRGDVLDCLQDGEKIMSYICSQQDTLSNKITECCKLTTLERGQCIIHAENDEKPEGLSPNLNRFLGDRDFNQFSSGEKNIFLASFVHEYSRRHPQLAVSVILRVAKGYQELLEKCFQTENPLECQDKGEEELQKYIQESQALAKRSCGLFQKLGEYYLQNAFLVAYTKKAPQLTSSELMAITRKMAATAATCCQLSEDKLLACGEGAADIIIGHLCIRHEMTPVNPGVGQCCTSSYANRRPCFSSLVVDETYVPPAFSDDKFIFHKDLCQAQGVALQTMKQEFLINLVKQKPQITEEQLEAVIADFSGLLEKCCQGQEQEVCFAEEGQKLISKTRAALGV
B2: nAFP: cord blood-derived normal alpha fetoprotein; commercially available (Cell Sciences) (protein, UniProt P02771 19-609, looked up)
Alpha-fetoprotein: RTLHRNEYGIASILDSYQCTAEISLADLATIFFAQFVQEATYKEVSKMVKDALTAIEKPTGDEQSSGCLENQLPAFLEELCHEKEILEKYGHSDCCSQSEEGRHNCFLAHKKPTPASIPLFQVPEPVTSCEAYEEDRETFMNKFIYEIARRHPFLYAPTILLWAARYDKIIPSCCKAENAVECFQTKAATVTKELRESSLLNQHACAVMKNFGTRTFQAITVTKLSQKFTKVNFTEIQKLVLDVAHVHEHCCRGDVLDCLQDGEKIMSYICSQQDTLSNKITECCKLTTLERGQCIIHAENDEKPEGLSPNLNRFLGDRDFNQFSSGEKNIFLASFVHEYSRRHPQLAVSVILRVAKGYQELLEKCFQTENPLECQDKGEEELQKYIQESQALAKRSCGLFQKLGEYYLQNAFLVAYTKKAPQLTSSELMAITRKMAATAATCCQLSEDKLLACGEGAADIIIGHLCIRHEMTPVNPGVGQCCTSSYANRRPCFSSLVVDETYVPPAFSDDKFIFHKDLCQAQGVALQTMKQEFLINLVKQKPQITEEQLEAVIADFSGLLEKCCQGQEQEVCFAEEGQKLISKTRAALGV
B3: OVA: Ovalbumin, negative control protein (protein, UniProt P01012 2-386, looked up)
Ovalbumin: GSIGAASMEFCFDVFKELKVHHANENIFYCPIAIMSALAMVYLGAKDSTRTQINKVVRFDKLPGFGDSIEAQCGTSVNVHSSLRDILNQITKPNDVYSFSLASRLYAEERYPILPEYLQCVKELYRGGLEPINFQTAADQARELINSWVESQTNGIIRNVLQPSSVDSQTAMVLVNAIVFKGLWEKAFKDEDTQAMPFRVTEQESKPVQMMYQIGLFRVASMASEKMKILELPFASGTMSMLVLLPDEVSGLEQLESIINFEKLTEWTSSNVMEERKIKVYLPRMKMEEKYNLTSVLMAMGITDVFSSSANLSGISSAESLKISQAVHAAHAEINEAGREVVGSAEAGVDAASVSEEFRADHPFLFCIKHIATNAVLFFGRCVSP

Test: Lipid analysis of protein-bound fatty acids by mass spectrometry and gas chromatography

| Molecule | saturated fatty acids (SUFAs) bound, mean proportion [%] | monounsaturated fatty acids (MUFAs) bound, compared to OVA (P=0.0042) [fold] | monounsaturated fatty acids (MUFAs) bound, compared to nAFP (P=0.0318) [fold] |
| --- | --- | --- | --- |
| B1 | 77 | 2 | 4 |
| B2 | 82 | – | – |
| B3 | 99 | – | – |
